Assay results taken from PubChem BioAssay AID1671190 (National Center for Advancing Translational Sciences (NCATS), 2021).
The whole screen tested about 580,000 compounds, of which about 6,100 (1.1%) were called active. Inconclusive results, whose numbers are uncertain, are shown with a selection of clear calls. The call rests on the fitted dose curve; in most records, active means well fitted inhibition curve with a large enough effect; inconclusive means small, poorly fitted or top-dose-only effect, or another doubt; inactive means no such curve, though single readings can be large or run the other way. Where the call is inconclusive, the potency comes from a doubtful curve fit.

Protein sequences, listed by entry. Tags and fused reporters are not part of them. Lines headed by an entry give the natural chain unless they say otherwise; changes in a name come on top.
UniProt P18054: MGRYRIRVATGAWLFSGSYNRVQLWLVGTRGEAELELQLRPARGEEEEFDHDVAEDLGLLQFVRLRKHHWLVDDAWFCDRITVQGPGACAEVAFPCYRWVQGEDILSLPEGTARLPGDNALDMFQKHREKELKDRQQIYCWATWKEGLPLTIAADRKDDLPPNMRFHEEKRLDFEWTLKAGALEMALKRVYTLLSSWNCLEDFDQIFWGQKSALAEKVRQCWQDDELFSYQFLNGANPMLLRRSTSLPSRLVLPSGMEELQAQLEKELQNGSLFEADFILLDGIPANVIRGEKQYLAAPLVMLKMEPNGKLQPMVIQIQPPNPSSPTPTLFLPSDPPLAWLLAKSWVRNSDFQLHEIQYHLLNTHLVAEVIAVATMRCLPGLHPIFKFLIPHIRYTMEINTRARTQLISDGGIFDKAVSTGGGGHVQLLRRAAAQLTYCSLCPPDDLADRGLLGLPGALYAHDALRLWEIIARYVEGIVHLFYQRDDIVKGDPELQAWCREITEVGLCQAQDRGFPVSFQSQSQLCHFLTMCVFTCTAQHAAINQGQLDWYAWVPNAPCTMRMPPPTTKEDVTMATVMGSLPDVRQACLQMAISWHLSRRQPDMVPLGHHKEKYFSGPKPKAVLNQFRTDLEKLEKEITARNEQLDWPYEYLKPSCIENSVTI

biological target: Polyunsaturated fatty acid lipoxygenase ALOX12 (Homo sapiens) (UniProt P18054); assay: Primary qHTS assay for inhibitors of human arachidonate 12S-lipoxygenase (ALOX12): Round 2; settings: purified 12hLO, xylenol orange hydroperoxide absorbance; series mostly up to 108 µM
In short: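 Hydroperoxide product was detected by ferrous iron/xylenol orange as the 573 to 405 nm absorbance ratio. Arachidonic acid at 40 uM (final) was turned over for 30 min at room temperature by 150 nM human 12hLO, pH 7.0 Hepes buffer, after 15 min compound preincubation.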
Potency means the concentration at half of the fitted maximal effect.

Row | SMILES | Potency
1 | Fc1ccc2cc(C3=CCCCC3)ncc2c1 | inconclusive: 39.8 µM [inhibitor, partial curve, poor fit]
2 | CN(C)CCCNC(=S)Nc1ccc(Oc2ccccc2)cc1 | inconclusive: 79.4 µM [inhibitor, partial curve, poor fit]
3 | Cc1ccc([C@H]2C[C@H](O)[C@@H](n3cc(C4CC4)nn3)CN2Cc2cccs2)cc1 | inconclusive: 39.8 µM [inhibitor, partial curve, poor fit]
4 | Cc1cc(C)n(CC(=O)N2CCC3(CC2)CC(N2CCN(C(C)C)CC2)CCO3)n1 (stereo not drawn) | inactive
5 | O=C(c1ccc2c(c1)N(Cc1cccc(F)c1)C(=O)c1ccccc1S2)N1CCCC1 | inconclusive: 50.1 µM [inhibitor, partial curve, poor fit]
6 | CCNC(=O)/C(C#N)=C/c1c(N2CCN(c3ccccc3)CC2)nc2ccccn2c1=O | inconclusive: 126 µM [inhibitor, single point]
7 | Cc1ccccc1C(=O)Nc1ccc2c(c1)nc(CN1CCC(C)CC1)n2C | inactive
8 | CC(C)c1cnc2c(c1SCC(=O)NCc1ccccc1Cl)c(=O)n(C)c(=O)n2C | inactive
9 | Oc1ccc(C2C(c3ccccc3)=NN=C(c3ccc(Cl)cc3)N2O)c(O)c1 (stereo not drawn) | active: 31.6 µM
10 | OC(COc1ccccc1)CN1CCCC1 (stereo not drawn) | inconclusive: 0.708 µM [inhibitor, full curve, poor fit]
11 | Cc1ccc(OCCNC(=O)Cc2c[nH]c3ccccc23)c(C)c1 | inconclusive: 89.1 µM [inhibitor, single point]
12 | COc1ccc(-c2sc(Nc3ccc(F)c(F)c3F)nc2CCC(=O)NN)cc1 | inconclusive: 56.2 µM [inhibitor, partial curve, poor fit]
13 | O=C(CNC(=O)c1cccs1)NCC1COc2ccccc2O1 (stereo not drawn) | inconclusive: 89.1 µM [inhibitor, partial curve, poor fit]
14 | O=C(NC1CCCC1)C(c1ccncc1)N(C(=O)c1csnn1)c1ccccc1 (stereo not drawn) | inactive
15 | CCn1c(SCC(=O)N2CCCCC2C)nc2c1c(=O)n(C)c(=O)n2C (stereo not drawn) | inconclusive: 126 µM [inhibitor, single point]
16 | CC(=O)n1cc([C@@H]2C=C(C(=O)O)O[C@H](OCc3ccc(CO)cc3)C2)c2ccccc21 | inconclusive: 44.7 µM [inhibitor, partial curve, poor fit]
17 | CCOC(=O)C1=C(C)OC(N)=C(C#N)C1c1ccc(O)c(OC)c1 (stereo not drawn) | inconclusive: 89.1 µM [inhibitor, single point]
18 | CCc1cccc2c1NC(=O)C2(O)CC(=O)c1ccc(Br)cc1 (stereo not drawn) | inactive

Reformatted: results already given
Row	SMILES	Potency
5	O=C(c1ccc2c(c1)N(Cc1cccc(F)c1)C(=O)c1ccccc1S2)N1CCCC1	inconclusive: 50.1 µM [inhibitor, partial curve, poor fit]
6	CCNC(=O)/C(C#N)=C/c1c(N2CCN(c3ccccc3)CC2)nc2ccccn2c1=O	inconclusive: 126 µM [inhibitor, single point]
